Measured values: paper PMC3986870
Results are given in words; binding and its absence hold for the method and conditions named. In cells and extracts the contact can be indirect. Some entries that bind do so weakly or less than the wild type.

Chains of the proteins cited; added tags and fusions are not shown. Lines headed by an entry give the natural chain unless they say otherwise; changes in a name come on top. Residues count along the entry.
UniProt P04406: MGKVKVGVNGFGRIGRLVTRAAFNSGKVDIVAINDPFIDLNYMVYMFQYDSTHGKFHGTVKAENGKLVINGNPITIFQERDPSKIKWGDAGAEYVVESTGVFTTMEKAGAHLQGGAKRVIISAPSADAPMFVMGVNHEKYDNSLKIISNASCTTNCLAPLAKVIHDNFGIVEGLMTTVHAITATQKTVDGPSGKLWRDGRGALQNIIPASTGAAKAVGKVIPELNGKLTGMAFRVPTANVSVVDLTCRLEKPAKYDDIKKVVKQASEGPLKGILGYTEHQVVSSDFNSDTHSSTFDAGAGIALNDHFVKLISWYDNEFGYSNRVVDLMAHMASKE
GST-GAPDH2-2-1-1 (I221-E250): residues 221-250 of P04406
UniProt P10361: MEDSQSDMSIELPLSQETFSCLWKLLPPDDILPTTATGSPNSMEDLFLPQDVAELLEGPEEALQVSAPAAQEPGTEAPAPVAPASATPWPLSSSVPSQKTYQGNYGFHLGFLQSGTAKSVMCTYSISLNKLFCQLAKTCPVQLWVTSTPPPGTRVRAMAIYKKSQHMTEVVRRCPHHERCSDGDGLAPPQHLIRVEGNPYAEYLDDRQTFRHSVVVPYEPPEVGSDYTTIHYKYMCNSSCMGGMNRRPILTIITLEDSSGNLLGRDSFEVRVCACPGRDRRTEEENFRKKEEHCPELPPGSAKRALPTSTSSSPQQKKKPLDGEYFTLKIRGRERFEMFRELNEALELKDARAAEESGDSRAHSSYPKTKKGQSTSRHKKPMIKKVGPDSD
UniProt P04797: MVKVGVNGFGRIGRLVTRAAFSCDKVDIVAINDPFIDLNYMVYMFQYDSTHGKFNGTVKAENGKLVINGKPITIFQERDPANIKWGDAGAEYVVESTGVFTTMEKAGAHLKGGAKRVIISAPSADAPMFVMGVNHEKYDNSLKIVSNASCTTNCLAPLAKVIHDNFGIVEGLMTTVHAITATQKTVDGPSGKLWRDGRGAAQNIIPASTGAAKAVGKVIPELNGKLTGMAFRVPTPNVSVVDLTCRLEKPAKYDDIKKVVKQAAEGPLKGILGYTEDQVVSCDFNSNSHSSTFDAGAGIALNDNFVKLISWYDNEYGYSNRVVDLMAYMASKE

Legend:
[1] = biological target: GST-fusion protein encoding GAPDH (GST-GAPDH) (UniProt P04406); experiment: pull-down; GST-fusion proteins (50 μg) on glutathione-sepharose beads incubated with solubilized nuclear extracts (800 μg protein) at room temperature for 1 hour; Western blot for p53; only the target purified
[2] = biological target: GST-GAPDH2-2-1-1 (I221-E250) (UniProt P04406); experiment: as above
[3] = biological target: p53, endogenous, rat brain nuclear extracts (rat (endogenous in hippocampus and cortex)) (UniProt P10361); experiment: co-IP; p53 antibody (polyclonal, Abcam) with protein A/G agarose; solubilized nuclear proteins from rat hippocampal slices with/without glutamate treatment; Western blot for GAPDH

p53, endogenous, rat brain nuclear extracts (from UniProt P10361 1-391)
binding [1]: binds | binding [2]: binds

Glyceraldehyde 3-phosphate dehydrogenase (GAPDH), endogenous, rat brain nuclear extracts (from UniProt P04797 1-333)
binding [3]: binds
